Results from paper PMC10901513.
No constants are given. Whether binding was seen depends on the method and setting. In cells and extracts the contact can be indirect. Some entries that bind do so weakly or less than the wild type.

Sequences of proteins named here, by UniProt entry; tags and fusion partners are left off. A change or cut given only in a name is not applied to a line headed by its entry.
UniProt Q15910: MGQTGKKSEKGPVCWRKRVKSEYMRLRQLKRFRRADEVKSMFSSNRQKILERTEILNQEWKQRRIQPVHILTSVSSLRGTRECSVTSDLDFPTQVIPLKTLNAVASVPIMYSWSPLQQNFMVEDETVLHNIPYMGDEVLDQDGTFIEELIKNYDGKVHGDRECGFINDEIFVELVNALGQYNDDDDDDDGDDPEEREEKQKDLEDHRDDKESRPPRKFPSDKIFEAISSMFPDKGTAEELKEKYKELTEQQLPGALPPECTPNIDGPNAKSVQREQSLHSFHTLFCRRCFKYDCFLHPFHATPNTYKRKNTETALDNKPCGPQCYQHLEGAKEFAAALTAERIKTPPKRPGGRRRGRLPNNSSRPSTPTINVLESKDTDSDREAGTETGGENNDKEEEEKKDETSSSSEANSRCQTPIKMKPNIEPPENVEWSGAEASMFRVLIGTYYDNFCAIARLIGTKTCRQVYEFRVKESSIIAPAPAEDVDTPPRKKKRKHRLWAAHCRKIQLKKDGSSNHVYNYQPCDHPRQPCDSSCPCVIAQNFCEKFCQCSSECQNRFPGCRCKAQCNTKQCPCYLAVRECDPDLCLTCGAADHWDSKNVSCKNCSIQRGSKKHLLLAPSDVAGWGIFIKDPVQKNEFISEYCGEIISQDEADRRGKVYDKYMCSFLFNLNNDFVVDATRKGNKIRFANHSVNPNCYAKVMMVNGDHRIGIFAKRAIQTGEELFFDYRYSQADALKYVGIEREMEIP

Assays:
[1] = target: HA-tagged EZH2 K20R mutant (human) (UniProt Q15910); assay: co-IP; 293T cells co-transfected with HA-EZH2 or HA-K20R and Set7 or empty vector; lysates immunoprecipitated with anti-HA, blotted with anti-L3MBTL3 and anti-HA
[2] = target: HA-tagged EZH2, wild type (human) (UniProt Q15910); assay: as above
[3] = target: EZH2 (enhancer of Zeste homolog 2), mouse, wild type (mouse (endogenous in mouse embryos and MEFs)), Q61188; assay: co-IP; lysates of primary Ezh2 wild-type and K20R mutant MEFs immunoprecipitated with anti-EZH2, blotted for histone H3, SUZ12 and EED; K20R MEFs also with or without MK2206 (2 uM, 4 hr); conditions: remark: other sources report otherwise

binding [1] | binding [2] | binding [3] | Binder
no binding | binds |  | L3MBTL3, human, endogenous (protein, UniProt Q96JM7 1-780) MTESASSTSGQEFDVFSVMDWKDGVGTLPGSDLKFRVNEFGALEVITDENEMENVKKATATTTWMVPTAQEAPTSPPSSRPVFPPAYWTSPPGCPTVFSEKTGMPFRLKDPVKVEGLQFCENCCQYGNVDECLSGGNYCSQNCARHIKDKDQKEERDVEEDNEEEDPKCSRKKKPKLSLKADTKEDGEERDDEMENKQDVRILRGSQRARRKRRGDSAVLKQGLPPKGKKAWCWASYLEEEKAVAVPAKLFKEHQSFPYNKNGFKVGMKLEGVDPEHQSVYCVLTVAEVCGYRIKLHFDGYSDCYDFWVNADALDIHPVGWCEKTGHKLHPPKGYKEEEFNWQTYLKTCKAQAAPKSLFENQNITVIPSGFRVGMKLEAVDKKNPSFICVATVTDMVDNRFLVHFDNWDESYDYWCEASSPHIHPVGWCKEHRRTLITPPGYPNVKHFSWDKYLEETNSLPAPARAFKVKPPHGFQKKMKLEVVDKRNPMFIRVATVADTDDHRVKVHFDGWNNCYDYWIDADSPDIHPVGWCSKTGHPLQPPLSPLELMEASEHGGCSTPGCKGIGHFKRARHLGPHSAANCPYSEINLNKDRIFPDRLSGEMPPASPSFPRNKRTDANESSSSPEIRDQHADDVKEDFEERTESEMRTSHEARGAREEPTVQQAQRRSAVFLSFKSPIPCLPLRWEQQSKLLPTVAGIPASKVSKWSTDEVSEFIQSLPGCEEHGKVFKDEQIDGEAFLLMTQTDIVKIMSIKLGPALKIFNSILMFKAAEKNSHNEL
 |  | binds | SUZ12 (suppress of Zeste 12), mouse, Q80U70 1-741 (protein) MAPQKHGGGGGGGSGPSAGSGGGGFGGSAAAVAAAASGGKSGGGGCGGGGSYSASSSSAAAAAAAAGAAVLPVKKPKMEHVQADHELFLQAFEKPTQIYRFLRTRNLIAPIFLHRTLTYMSHRNSRTSIKRKTFKVDDMLSKVEKMKGEQESHSLSAHLQLTFTGFFHKNDKPSQNSENEQNSVTLEVLLVKVCHKKRKDVSCPIRQVPTGKKQVPLNPDLNQTKPGNFPSLAVSSNEFEPSNSHMVKSYSLLFRVTRPGRREFNGMINGETNENIDVSEELPARRKRNREDGEKTFVAQMTVFDKNRRLQLLDGEYEVAMQEMEECPISKKRATWETILDGKRLPPFETFSQGPTLQFTLRWTGETNDKSTAPVAKPLATRNSESLHQENKPGSVKPAQTIAVKETLTTELQTRKEKDNSNESRQKLRIFYQFLYNNNTRQQTEARDDLHCPWCTLNCRKLYSLLKHLKLCHSRFIFNYVYHPKGARIDVSINECYDGSYAGNPQDIHRQPGFAFSRNGPVKRTPITHILVCRPKRTKASMSEFLESEDGEVEQQRTYSSGHNRLYFHSDTCLPLRPQEMEVDSEDEKDPEWLREKTITQIEEFSDVNEGEKEVMKLWNLHVMKHGFIADNQMNHACMLFVENYGQKIIKKNLCRNFMLHLVSMHDFNLISIMSIDKAVTKLREMQQKLEKGESATPSNEEIAEEQNGTANGFSETNSKEKALETDGVSGVPKQSKKQKL
